From PubChem BioAssay AID258 (DTP/NCI, 2004)
The list does not hold the whole screen: it gathers tests that were run many times, whatever their T/C, doses with no T/C, and many T/C values between a quarter and a half above the control. Further doses and runs are listed elsewhere. T/C is the treated group as % of the vehicle group. Some entries give survivors of the animals treated and no T/C: the source files T/C as zero there, which appears to mark a toxic dose or a test without result, not a measured value. Some doses without a T/C left all or most animals alive at the check, yet need not have been tolerated: the source hardly ever lists a survival T/C far under the control, and the zero likely stands for such cases as well. Counts of survivors are from the toxicity check (mostly the fifth day) where no day follows; animals may have died later. Schedule codes are those of the source, taken here to give the interval after Q, in days (D) or hours (H), and the number of doses after X. Some schedules carry Z or #; the key to these is not given. Some entries hold several experiments; their values stand side by side, smallest first. Some molecules as drawn cover several salts, stereoisomers or complexes of the source; a dose is that of the sample tested. Where survival is the endpoint, this PubChem deposit counts one and a half times the control or more as active, and values a quarter to a half above the control carry no call in these data; other NCI protocols may use other cut-offs. Some T/C values are followed by the survivors on the day toxicity was checked, most often the fifth; where none is given, no animal had died by that day.

Test system: CD2F1 mice, L1210 leukemia sc, survival T/C
Experiment: NCI In Vivo Anticancer Drug Screen. Data for tumor model L1210 Leukemia (subcutaneous) in CD2F1 (CDF1) mice
Conditions: T/C endpoint: median survival time, higher T/C = longer survival
Outline: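 Read-out: survival or tumor size. Value = treated (T) / vehicle control (C). Transplantable tumor in mice.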

[1] = dose: 20.0 mg/kg/injection, schedule: Q01DX009 (sc), vehicle: saline

In the case of `O=c1[nH]c(=O)n(C2CC(O)C(CO)O2)cc1C(F)(F)F` (configuration not stated), the T/C (dose: 20.0 mg/kg/injection, schedule: Q01DX009 (ip), vehicle: saline with Tween-80, evaluated on day 30) is reported as 143 % of control, the T/C (dose: 20.0 mg/kg/injection, schedule: Q01DX009 (ip), vehicle: saline with Tween-80, evaluated on day 45) is reported as 133 % of control and the T/C (dose: 20.0 mg/kg/injection, schedule: Q01DX009 (sc), vehicle: saline with Tween-80) is reported as 131 % of control. The T/C [1] was 143 % of control, the survivor count [1] was 5 of 10 and the T/C (dose: 27.0 mg/kg/injection, schedule: Q01DX009 (ip), vehicle: saline with Tween-80) was 134 % of control. The T/C (dose: 30.0 mg/kg/injection, schedule: Q01DX009 (sc), vehicle: saline with Tween-80) was 131 % of control, the T/C (dose: 40.0 mg/kg/injection, schedule: Q01DX009 (ip), vehicle: saline with Tween-80) was 143 % of control and the T/C (dose: 40.0 mg/kg/injection, schedule: Q01DX009 (sc), vehicle: saline with Tween-80) was 145 % of control. The T/C (dose: 40.0 mg/kg/injection, schedule: Q01DX009 (sc), vehicle: saline) was 145 % of control, the T/C (dose: 80.0 mg/kg/injection, schedule: Q01DX009 (sc), vehicle: saline, evaluated on day 30) was 127 [8 of 10 alive] and 148 % of control and the T/C (dose: 80.0 mg/kg/injection, schedule: Q01DX009 (sc), vehicle: saline, evaluated on day 45) was 130 % of control. For the same compound, the T/C (dose: 150.0 mg/kg/injection, schedule: Q01DX009 (sc), vehicle: saline with Tween-80) was 137 % of control, the T/C (dose: 160.0 mg/kg/injection, schedule: Q01DX009 (sc), vehicle: saline, evaluated on day 30) was 143 % of control and the T/C (dose: 160.0 mg/kg/injection, schedule: Q01DX009 (sc), vehicle: saline, evaluated on day 45) was 128 % of control. The T/C (dose: 210.0 mg/kg/injection, schedule: Q01DX009 (sc), vehicle: saline) was 149 % of control, the T/C (dose: 270.0 mg/kg/injection, schedule: Q01DX009 (sc), vehicle: saline) was 149 % of control and the T/C (dose: 320.0 mg/kg/injection, schedule: Q01DX009 (sc), vehicle: saline with Tween-80) was 147 % of control. For the same compound, the T/C (dose: 320.0 mg/kg/injection, schedule: Q01DX009 (sc), vehicle: saline, evaluated on day 30) was 134 % of control, the T/C (dose: 320.0 mg/kg/injection, schedule: Q01DX009 (sc), vehicle: saline, evaluated on day 45) was 142 % of control and the T/C (dose: 480.0 mg/kg/injection, schedule: Q01DX009 (sc), vehicle: saline with Tween-80, evaluated on day 30) was 143 % of control. For the same compound, the T/C (dose: 480.0 mg/kg/injection, schedule: Q01DX009 (sc), vehicle: saline with Tween-80, evaluated on day 45) was 143 % of control and the T/C (dose: 640.0 mg/kg/injection, schedule: Q01DX009 (sc), vehicle: saline with Tween-80) was 137 % of control.

With `Nc1n[nH]c2ccccc12` the T/C (dose: 200.0 mg/kg/injection, schedule: Q01DX009 (ip), vehicle: acid diluted with saline) was 149 % of control, the survivor count (dose: 400.0 mg/kg/injection, schedule: Q01DX005 (ip), vehicle: acid diluted with saline) was 0 of 10 and the survivor count (dose: 400.0 mg/kg/injection, schedule: Q01DX009 (ip), vehicle: acid diluted with saline) was 4 of 5.

In the case of `CS(=O)(=O)OCCCCOS(C)(=O)=O`, the survivor count (dose: 5.0 mg/kg/injection, schedule: Q01DX Z (sc), vehicle: methylcellulose (MC)) is reported as 2 of 10, the survivor count (dose: 8.4 mg/kg/injection, schedule: Q01DX Z (sc), vehicle: methylcellulose (MC)) is reported as 0 of 10 and the survivor count (dose: 14.0 mg/kg/injection, schedule: Q01DX Z (sc), vehicle: methylcellulose (MC)) is reported as 0 of 10. The survivor count (dose: 23.0 mg/kg/injection, schedule: Q01DX Z (sc), vehicle: methylcellulose (MC)) was 1 of 10, the survivor count (dose: 39.0 mg/kg/injection, schedule: Q01DX Z (sc), vehicle: methylcellulose (MC)) was 1 of 10 and the survivor count (dose: 65.0 mg/kg/injection, schedule: Q01DX Z (sc), vehicle: methylcellulose (MC)) was 1 of 10. The survivor count (dose: 108.0 mg/kg/injection, schedule: Q01DX Z (sc), vehicle: methylcellulose (MC)) was 2 of 10, the survivor count (dose: 180.0 mg/kg/injection, schedule: Q01DX Z (sc), vehicle: methylcellulose (MC)) was 0 of 10 and 4 of 10 and the survivor count (dose: 300.0 mg/kg/injection, schedule: Q01DX Z (sc), vehicle: methylcellulose (MC)) was 1 of 10. The survivor count (dose: 500.0 mg/kg/injection, schedule: Q01DX Z (sc), vehicle: methylcellulose (MC)) was 0 of 10.

`CN1c2c(nc(N)[nH]c2=O)NCC1CCNc1ccc(C(=O)NC(CCC(=O)O)C(=O)O)cc1` (configuration not stated) was tested, and the T/C (dose: 25.0 mg/kg/injection, schedule: Q03HX024 (ip), vehicle: other) was 133 % of control, the T/C (dose: 50.0 mg/kg/injection, schedule: Q01DX009 (ip), vehicle: other) was 133 % of control and the T/C (dose: 50.0 mg/kg/injection, schedule: Q01DX Z (ip), vehicle: other) was 144 % of control. The T/C (dose: 50.0 mg/kg/injection, schedule: Q03HX024 (ip), vehicle: other) was 133 % of control, the T/C (dose: 100.0 mg/kg/injection, schedule: Q01DX009 (ip), vehicle: other) was 133 % of control and the T/C (dose: 100.0 mg/kg/injection, schedule: Q01DX Z (ip), vehicle: other) was 133 % of control. The T/C (dose: 100.0 mg/kg/injection, schedule: Q03HX024 (ip), vehicle: other) was 144 % of control, the T/C (dose: 200.0 mg/kg/injection, schedule: Q01DX Z (ip), vehicle: other) was 145 % of control and the T/C (dose: 200.0 mg/kg/injection, schedule: Q03HX024 (ip), vehicle: other) was 138 % of control. For the same compound, the T/C (dose: 800.0 mg/kg/injection, schedule: Q01DX009 (ip), vehicle: other) was 133 % of control, the T/C (dose: 800.0 mg/kg/injection, schedule: Q01DX Z (ip), vehicle: other, evaluated on day 26) was 144 % of control and the T/C (dose: 800.0 mg/kg/injection, schedule: Q01DX Z (ip), vehicle: other, evaluated on day 30) was 140 % of control. For the same compound, the T/C (dose: 800.0 mg/kg/injection, schedule: Q04DX003 (ip), vehicle: other) was 133 % of control and the T/C (dose: 1600.0 mg/kg/injection, schedule: Q01DX Z (ip), vehicle: other) was 130 % of control.

With `O=NNc1cnccn1` the T/C (dose: 24.0 mg/kg/injection, schedule: Q01DX009 (ip), vehicle: water) was 137 % of control, the survivor count (dose: 111.1 mg/kg/injection, schedule: Q01DX009 (ip), vehicle: water) was 9 of 9 and the survivor count (dose: 185.17 mg/kg/injection, schedule: Q01DX009 (ip), vehicle: water) was 1 of 10.

With `O=C(Nc1ccc(C2=NCCN2)cc1)c1ccc(C(=O)Nc2ccc(C3=NCCN3)cc2)c(Cl)c1` the survivor count (dose: 5.0 mg/kg/injection, schedule: Q01DX Z (sc), vehicle: saline) was 2 of 10, the survivor count (dose: 8.4 mg/kg/injection, schedule: Q01DX Z (sc), vehicle: saline) was 1 of 10 and the survivor count (dose: 14.0 mg/kg/injection, schedule: Q01DX Z (sc), vehicle: saline) was 2 of 10. For the same compound, the survivor count (dose: 23.0 mg/kg/injection, schedule: Q01DX Z (iv), vehicle: water) was 6 of 10, the survivor count (dose: 23.0 mg/kg/injection, schedule: Q01DX Z (sc), vehicle: saline) was 4 of 10 and the survivor count (dose: 39.0 mg/kg/injection, schedule: Q01DX Z (sc), vehicle: saline) was 6 of 10. The survivor count (dose: 65.0 mg/kg/injection, schedule: Q01DX Z (sc), vehicle: saline) was 5 of 10, the survivor count (dose: 108.0 mg/kg/injection, schedule: Q01DX Z (sc), vehicle: saline) was 3 of 10 and the T/C (dose: 108.0 mg/kg/injection, schedule: Q01DX Z (sc), vehicle: water) was 133 % of control.
